{"source": "patent US9561220B2", "about": "“Group of alkaloids, the novel autophagic enhancers for treatment of cancers and neurodegenerative conditions thereof” (Macau University of Science and Technology, priority 2014, dated 2017)", "key": {"[1]": {"system": "AMPK", "experiment": "Detection of mTOR signaling marker proteins: AMPK phosphorylation (Western blot)", "format": "cell-based, human", "conditions": "HeLa cells, 20 μM liensinine or 10 μM others, compared to DMSO control (FIG. 5a)", "procedure": "(§1) HeLa cells treated with 20 μM of […], 10 μM of isoliensinine, 10 μM of dauricine, 10 μM of cepharanthine, 10 μM of hernandezine and 10 μM of thalidezine were harvested and lysed in RIPA buffer (Cell Signaling). The cell lysates were then resolved by SDS-PAGE. After electrophoresis, the proteins from SDS-PAGE were transferred to nitrocellulose membrane which was then blocked with 5% non-fat dried milk for 60 minutes. The membrane was then incubated with P-p70S6K, p70S6K, P-AMPK, AMPK and actin primary antibodies (1:1000) in TBST overnight at 4° C. respectively. After that, the membrane was further incubated with HRP-conjugated secondary antibodies for 60 minutes. Finally, protein bands were visualized by using the ECL Western Blotting Detection Reagents (Invitrogen)."}, "[2]": {"system": "mutant huntingtin aggregate (HDQ55)", "experiment": "Mutant huntingtin aggregate by fluorescence imaging", "format": "cell-based", "conditions": "PC 12 cells, fluorescence imaging (FIG. 8c)", "procedure": "(§2) PC 12 cells were transfected transiently with EGFP-HDQ55/74 plasmids for 24 h using Lipofectamine Plus LTX reagent (Invitrogen) according to the manufacturer's protocol. The transfected cells were then treated with […], isoliensinine, dauricine, cepharanthine, hernandezine and thalidezine for 24 h. The removal of mutant huntingtin, ([…]74) was then quantitated by immunoblotting with antibody against EGFP or by immunocytochemistry under fluorescence microscopy."}, "[3]": {"system": "HeLa cells expressing GFP-LC3", "experiment": "GFP-LC3 puncta quantification in the presence of AMPK inhibitor compound C", "format": "cell-based, human", "conditions": "compound C 5 μM, 24 hours (FIG. 5b)", "procedure": "GFP-LC3 puncta formation was quantified as previously described. In brief, HeLa cells expressing GFP-LC3 were treated with indicated concentrations of […], isoliensinine, dauricine, cepharanthine, hernandezine and thalidezine in the presence of AMPK inhibitor, compound C (CC, 5 μM), for 24 hours. The cells were then fixed in 4% paraformaldehyde for 20 minutes at room temperature and then rinsed with PBS. Slides were mounted with FluorSaveTM mounting media (Calbiochem) and examined by fluorescence microscopy. To quantify for autophagy, the percentage of cells with punctate GFP-LC3 fluorescence was calculated by counting the number of the cells with punctate GFP-LC3 fluorescence in GFP-positive cells. A minimum of 150 cells from 3 randomly selected fields were scored."}, "[4]": {"system": "Atg7-knockout (Atg7-ko or Atg7−/−) mouse embryonic fibroblasts", "experiment": "GFP-LC3 puncta in Atg7 deficient MEFs", "format": "cell-based", "conditions": "20 μM liensinine or 10 μM others, 24 h (FIGS. 4a to 4c)", "procedure": "(§3) GFP-LC3 puncta formation was quantified as previously described. In brief, both Atg7 wild-type (Atg7-wt or Atg7+/+) and deficient (Atg7-/-) mouse embryonic fibroblasts (MEFs) were transfected with GFP-LC3 plasmid and then grown on coverslips in a 6-well plate. The cells were then treated with 20 μM of […], 10 μM of isoliensinine, 10 μM of dauricine, 10 μM of cepharanthine, hernandezine or 10 μM of thalidezine. for 24 h. The cells were then fixed in 4% paraformaldehyde for 20 minutes at room temperature and then rinsed with PBS. Slides were mounted with FluorSaveTM mounting media (Calbiochem, San Diego, Calif.) and examined by fluorescence microscopy. The number of GFP-positive cells with GFP-LC3 puncta formation was examined under the Nikon ECLIPSE 80i microscope. Representative images were captured with CCD digital camera Spot RT3TM (Diagnostic Instruments, Inc., Melville, N.Y.). To quantify for autophagy, the percentage of cells with punctate GFP-LC3 fluorescence was calculated by counting the number of the cells with punctate GFP-LC3 fluorescence in GFP-positive cells. A minimum of 150 cells from 3 randomly selected fields were scored."}, "[5]": {"system": "p70S6K", "experiment": "Detection of mTOR signaling marker proteins: p70S6K phosphorylation (Western blot)", "format": "cell-based, human", "conditions": "HeLa cells, 20 μM liensinine or 10 μM others (FIG. 5a)", "procedure": "as §1"}, "[6]": {"system": "EGFP-tagged mutant huntingtin (HDQ55, HDQ74)", "experiment": "Removal of mutant huntingtin by immunoblotting against EGFP", "format": "cell-based", "conditions": "PC 12 cells, 5-10 μM, 24 h, immunoblotting against EGFP antibody (FIG. 8b)", "procedure": "as §2"}, "[7]": {"system": "a panel of cancer and normal cells", "experiment": "GFP-LC3 puncta formation in a panel of cancer and normal cells", "format": "cell-based, human", "conditions": "fluorescent microscopy (FIG. 2c)", "procedure": "(§4) GFP-LC3 puncta formation was quantified as previously described. In brief, GFP-LC3 transfected cells grown on coverslips in a 6-well plate were treated with or without 20 μM of […], 10 μM of isoliensinine, dauricine, cepharanthine, hernandezine or thalidezine for 4 hours, the cells were then fixed in 4% paraformaldehyde for 20 minutes at room temperature and then rinsed with PBS. Slides were mounted with FluorSaveTM mounting media (Calbiochem, San Diego, Calif.) and examined by fluorescence microscopy. The number of GFP-positive cells with GFP-LC3 puncta formation was examined under the Nikon ECLIPSE 80i microscope. Representative images were captured with CCD digital camera Spot RT3TM (Diagnostic Instruments, Inc., Melville, N.Y.). To quantify for autophagy, the percentage of cells with punctate GFP-LC3 fluorescence was calculated by counting the number of the cells with punctate GFP-LC3 fluorescence in GFP-positive cells. A minimum of 150 cells from 3 randomly selected fields was scored."}, "[8]": {"system": "HeLa cells expressing GFP-LC3", "experiment": "GFP-LC3 puncta quantification in the presence of autophagic inhibitor 3-MA", "format": "cell-based, human", "conditions": "20 μM liensinine or 10 μM others, 3-MA 5 mM, 4 hours (FIG. 3)", "procedure": "GFP-LC3 puncta formation was quantified as previously described. In brief, HeLa cells expressing GFP-LC3 were treated with 20 μM of […], or 10 μM of isoliensinine, dauricine, cepharanthine, hernandezine or thalidezine in the presence of autophagic inhibitor, 3-methyl adenine (3-MA, 5 mM), for 4 hours. The cells were then fixed in 4% paraformaldehyde for 20 minutes at room temperature and then rinsed with PBS. Slides were mounted with FluorSaveTM mounting media (Calbiochem) and examined by fluorescence microscopy. To quantify for autophagy, the percentage of cells with punctate GFP-LC3 fluorescence was calculated by counting the number of the cells with punctate GFP-LC3 fluorescence in GFP-positive cells. A minimum of 150 cells from 3 randomly selected fields were scored."}, "[9]": {"system": "HeLa cancer cells", "experiment": "Quantification of autophagy GFP-LC3 puncta in HeLa cells", "format": "cell-based, human", "conditions": "20 μM liensinine or 10 μM others, 4 hours, compared to DMSO control (FIG. 2a)", "procedure": "as §4"}, "[10]": {"system": "LC3-II", "experiment": "Detection of autophagic marker protein LC3 conversion (Western blot)", "format": "cell-based, human", "conditions": "HeLa cells, Western blot (FIG. 2b)", "procedure": "After treatments with […], isoliensinine, dauricine, cepharanthine, hernandezine and thalidezine, cells were harvested and lysed in RIPA buffer (Cell Signaling Technologies Inc., Beverly, Mass.). The cell lysates were then resolved by SDS-PAGE. After electrophoresis, the proteins from SDS-PAGE were transferred to nitrocellulose membrane which was then blocked with 5% non-fat dried milk for 60 minutes. The membrane was then incubated with LC3 primary antibodies (1:1000) in TBST overnight at 4° C. After that, the membrane was further incubated with HRP-conjugated secondary antibodies for 60 minutes. Finally, protein bands were visualized by using the ECL Western Blotting Detection Reagents (Invitrogen, Paisley, Scotland, UK)."}, "[11]": {"system": "Atg7 wild-type mouse embryonic fibroblasts", "experiment": "GFP-LC3 puncta in Atg7 wild-type MEFs", "format": "cell-based", "conditions": "20 μM liensinine or 10 μM others, 24 h (FIGS. 4a to 4c)", "procedure": "as §3"}}, "note": "At least one compound was matched to its structure with a doubt left.", "data": [{"smiles": "COc1ccc2cc1Oc1ccc(cc1)C[C@H]1c3c(cc4c(c3Oc3cc5c(cc3OC)CCN(C)[C@@H]5C2)OCO4)CCN1C", "note": "[cepharanthine]", "values": [{"measurement": "phosphorylation of AMPK", "setting": "[1]", "result": "activate"}, {"measurement": "formed mutant huntingtin aggregate (HDQ55)", "setting": "[2]", "result": "significantly reduced"}, {"measurement": "compound-induced GFP-LC3 puncta formation in the presence of AMPK inhibitor (Compound C)", "setting": "[3]", "result": "significant reduction"}, {"measurement": "GFP-LC3 puncta formation in Atg7-knockout cells", "setting": "[4]", "result": "not"}, {"measurement": "downstream p70S6K phosphorylation", "setting": "[5]", "result": "concomitant reduction"}, {"measurement": "clearance of overexpressed EGFP-tagged mutant huntingtin (HDQ55, HDQ74)", "setting": "[6]", "result": "enhanced"}, {"measurement": "formation of GFP-LC3 puncta", "setting": "[7]", "result": "increased"}, {"measurement": "compound-induced GFP-LC3 puncta formation in the presence of autophagic inhibitor (3-MA)", "setting": "[8]", "result": "significant reduction"}, {"measurement": "GFP-LC3 puncta formation", "setting": "[9]", "result": "significantly induced"}, {"measurement": "conversion of the autophagic marker LC3-II", "setting": "[10]", "result": "induced"}, {"measurement": "GFP-LC3 puncta formation in wild type Atg7 cells", "setting": "[11]", "result": "induce"}]}]}
